Experimental data published in ChEMBL document CHEMBL1649459, “Analysis of cell membrane characteristics of in vitro-selected daptomycin-resistant strains of methicillin-resistant Staphylococcus aureus” (2009).
Values after ≈ are worked out from the molar mass of the structure shown.

Tests used:
[1] = system: Staphylococcus aureus; test: microbe, parasite or virus in culture; conditions: MW2 CB2201, 24 h
[2] = system: Staphylococcus aureus; test: microbe, parasite or virus in culture; conditions: MW2 CB2202, 120 h

## CN[C@H](CC(C)C)C(=O)N[C@H]1C(=O)N[C@@H](CC(N)=O)C(=O)N[C@H]2C(=O)N[C@H]3C(=O)N[C@H](C(=O)N[C@H](C(=O)O)c4cc(O)cc(O)c4-c4cc3ccc4O)[C@H](O)c3ccc(c(Cl)c3)Oc3cc2cc(c3O[C@@H]2O[C@H](CO)[C@@H](O)[C@H](O)[C@H]2O[C@H]2C[C@](C)(N)[C@H](O)[C@H](C)O2)Oc2ccc(cc2Cl)[C@H]1O [VANCOMYCIN]
[1]
  MIC: 3 µg/mL (≈ 2.07 µM)
[2]
  MIC: 3 µg/mL (≈ 2.07 µM)
